Source: PubChem BioAssay AID504764 (Drosophila RNAi Screening Center, 2011)
The deposit covers about 22,000 reagents; below is an unselected part of those with a known target gene and a result. In the full data, 403 (1.9%) were called active. 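Unnormalised raw counts per well; ratio z-scores behind the hit calls and whether each hit raises or lowers signal are not deposited.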 Unmarked entries are inactive. No sequences are given here. The record does not give: the amount of reagent.

- Assay: 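Knock-downs that raise or lower a Notch target reporter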 (primary screen)
- Cell system: Drosophila Kc167 cells
- Reagent: long dsRNA against Drosophila genes
- Duration: about 5 days (4 days dsRNA, then 24 h after transfection)
- Treatment: transfection of constitutively active membrane-tethered Notch lacking the extracellular domain, read 24 h later
- Read-out: 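Light from a Notch-responsive E(spl)m3 luciferase reporter under active Notch, with control-promoter and no-Notch reporter wells to normalise; raw counts from paired wells a and b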
- Reading the numbers: induced reporter light, run 1, well a and induced reporter light, run 1, well b: higher = more light from the Notch target reporter with active Notch; control promoter light, run 1, well a and control promoter light, run 1, well b: higher = more light from the viral control promoter (cell number, transfection, viability); uninduced reporter light, run 1, well a: higher = more light from the Notch target reporter without active Notch
- Call rule: 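Wells with low control signal or poorly matching duplicates excluded; duplicates averaged; per source plate, z beyond ±2 for induced/control log2 ratio or beyond ±1.8 for induced/uninduced marks a hit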
- Meaning of the calls: active = modifier hit (raised or lowered Notch signal); inactive = not a hit

Depletion of l(2)41Ab (lethal (2) 41Ab) [DRSC21007] resulted in: induced reporter light, run 1, well a = 2.41e5 (active); induced reporter light, run 1, well b = 2.16e5; control promoter light, run 1, well a = 2.10e5; control promoter light, run 1, well b = 2.88e5; uninduced reporter light, run 1, well a = 16790.
For eIF4G1 (eukaryotic translation initiation factor 4G1) [DRSC17218], the entry reads induced reporter light, run 1, well a = 23220; induced reporter light, run 1, well b = 31795; control promoter light, run 1, well a = 33805; control promoter light, run 1, well b = 31725; uninduced reporter light, run 1, well a = 1665.
Vha16-1 (Vacuolar H[+] ATPase 16kD subunit 1) [DRSC05020] gave induced reporter light, run 1, well a = 1.63e5; induced reporter light, run 1, well b = 1.24e5; control promoter light, run 1, well a = 1.60e5; control promoter light, run 1, well b = 1.47e5; uninduced reporter light, run 1, well a = 8720.
For Tfb1 (Transcription factor B1) [DRSC07082], the entry reads induced reporter light, run 1, well a = 1.06e5; induced reporter light, run 1, well b = 90265; control promoter light, run 1, well a = 89405; control promoter light, run 1, well b = 86870; uninduced reporter light, run 1, well a = 7895.
Silencing of CG13891 [DRSC08361] gave: induced reporter light, run 1, well a = 1.08e5; induced reporter light, run 1, well b = 1.05e5; control promoter light, run 1, well a = 2.21e5; control promoter light, run 1, well b = 1.76e5; uninduced reporter light, run 1, well a = 6555.

Only “induced reporter light, run 1, well a”, for 2 of the entries above:
Vha16-1 (Vacuolar H[+] ATPase 16kD subunit 1) [DRSC05020]	1.63e5
Tfb1 (Transcription factor B1) [DRSC07082]	1.06e5

Further records:
For Phm (Peptidylglycine-alpha-hydroxylating monooxygenase) [DRSC04639] the deposit lists induced reporter light, run 1, well a = 2.33e5; induced reporter light, run 1, well b = 1.98e5; control promoter light, run 1, well a = 1.72e5; control promoter light, run 1, well b = 1.87e5; uninduced reporter light, run 1, well a = 11905.
For CG6865 [DRSC10732] the deposit lists induced reporter light, run 1, well a = 2.01e5; induced reporter light, run 1, well b = 2.22e5; control promoter light, run 1, well a = 3.74e5; control promoter light, run 1, well b = 2.88e5; uninduced reporter light, run 1, well a = 12720.
Silencing of Unc-76 (Uncoordinated 76) [DRSC18193] gave: induced reporter light, run 1, well a = 1.03e5; induced reporter light, run 1, well b = 1.10e5; control promoter light, run 1, well a = 1.39e5; control promoter light, run 1, well b = 1.91e5; uninduced reporter light, run 1, well a = 7600.
After knock-down of Unc-76 (Uncoordinated 76) [DRSC18560], the record shows induced reporter light, run 1, well a = 1.09e5; induced reporter light, run 1, well b = 97070; control promoter light, run 1, well a = 1.11e5; control promoter light, run 1, well b = 1.45e5; uninduced reporter light, run 1, well a = 7055.
Knock-down of anne (anne boleyn) [DRSC17103] gave: induced reporter light, run 1, well a = 52165; induced reporter light, run 1, well b = 63210; control promoter light, run 1, well a = 89780; control promoter light, run 1, well b = 72570; uninduced reporter light, run 1, well a = 6280.
For Adgf-E (Adenosine deaminase-related growth factor E) [DRSC05973] the deposit lists induced reporter light, run 1, well a = 87245; induced reporter light, run 1, well b = 94185; control promoter light, run 1, well a = 1.20e5; control promoter light, run 1, well b = 1.17e5; uninduced reporter light, run 1, well a = 7432.
With knock-down of CG31267 [DRSC15748] the results were induced reporter light, run 1, well a = 2.01e5; induced reporter light, run 1, well b = 1.73e5; control promoter light, run 1, well a = 1.92e5; control promoter light, run 1, well b = 1.77e5; uninduced reporter light, run 1, well a = 15305.
